Laboratory results: PubChem BioAssay AID743454 (Peter MacCallum Cancer Centre, 2014)
Here is one part, drawn at random, of about 18,000 reagents. Over the whole deposit, 450 (2.5%) are marked active. 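Single biological run; no consistent viability z cut-off exists, so the class columns, not z-scores, define the calls.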 Reagent sequences are not shown.

Purpose: 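Genes whose loss kills vorinostat-resistant colon cancer cells under vorinostat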 (primary screen)
Cell system: human HCT116-VR colon cancer cells, selected for vorinostat resistance
Reagents: siRNA pool against human genes, 40 nM siRNA pool
Timing: vorinostat for 24 h, read-out about 72 h after transfection
Conditions: vorinostat at 2.5 µM final
Measurement: 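Cell viability by CellTiter-Fluor and caspase 3/7 activity by luminescence, each scaled to mock wells per plate, duplicates averaged, then robust z-scored over all plates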
Reading the numbers: viability robust z-score: higher = more viable cells than screen typical; caspase robust z-score: higher = more caspase 3/7 activity than screen typical
Rule for the call: 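a knock-down is a hit when classed RV1 or RV2 for lowered viability, or CA1 or CA2 for caspase activation; those lethal without drug were dropped; hits were retested singly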

How did the screen score DNASE1L1?
viability hit class: no change; caspase hit class: no change; viability robust z-score: 0.06; caspase robust z-score: -0.86; Call: inactive

What did the screen give for PIGU?
viability hit class: no change; caspase hit class: no change; viability robust z-score: -0.54; caspase robust z-score: -0.08; Call: inactive

For ARF5, how do the results read?
viability hit class: no change; caspase hit class: no change; viability robust z-score: -1.25; caspase robust z-score: 3.42; Call: inactive

What is on record for VILL?
viability hit class: no change; caspase hit class: no change; viability robust z-score: 0.26; caspase robust z-score: 0.68; Call: inactive

What did the screen give for TRIM11?
viability hit class: no change; caspase hit class: no change; viability robust z-score: 0.08; caspase robust z-score: -0.18; Call: inactive

With DELE1, what does the deposit list?
viability hit class: no change; caspase hit class: no change; viability robust z-score: 0.47; caspase robust z-score: 1.04; Call: inactive

What is on record for COMMD8?
viability hit class: no change; caspase hit class: no change; viability robust z-score: 0.02; caspase robust z-score: 2.21; Call: inactive

What is on record for CHRNB4?
viability hit class: no change; caspase hit class: no change; viability robust z-score: -2.15; caspase robust z-score: -0.42; Call: inactive

How did the screen score ADGRF5?
viability hit class: no change; caspase hit class: no change; viability robust z-score: 0.69; caspase robust z-score: -0.3; Call: inactive

With MACC1, what does the deposit list?
viability hit class: no change; caspase hit class: no change; viability robust z-score: 0.04; caspase robust z-score: 0.44; Call: inactive

Which result is listed for TSLIG3B?
viability hit class: no change; caspase hit class: no change; viability robust z-score: 0.81; caspase robust z-score: 0.56; Call: inactive

What did the screen give for TCEA2?
viability hit class: no change; caspase hit class: no change; viability robust z-score: -0.18; caspase robust z-score: 0.58; Call: inactive

For AGPAT5, what was measured?
viability hit class: no change; caspase hit class: no change; viability robust z-score: 0.76; caspase robust z-score: -0.36; Call: inactive

What did the screen give for EIF4E2?
viability hit class: no change; caspase hit class: no change; viability robust z-score: -1.48; caspase robust z-score: -0.76; Call: inactive
